For this test, the target named is GST-14-3-3ζ, expressed in COS-7 (UniProt P63104). The test is described as follows: pull-down; COS-7 cells co-expressing GST-14-3-3ζ and HA-Notch4-ΔhN4; treated with γ-secretase inhibitor BMS-708163 (1 μM, 1 h), EGF (100 ng/ml, 15 min) or both; lysate on GSH sepharose.

The chains behind the UniProt entries cited, without tags or fusion partners. Where a name states a change or a piece, a line headed by the entry shows the natural chain unless it says otherwise.
UniProt P63104: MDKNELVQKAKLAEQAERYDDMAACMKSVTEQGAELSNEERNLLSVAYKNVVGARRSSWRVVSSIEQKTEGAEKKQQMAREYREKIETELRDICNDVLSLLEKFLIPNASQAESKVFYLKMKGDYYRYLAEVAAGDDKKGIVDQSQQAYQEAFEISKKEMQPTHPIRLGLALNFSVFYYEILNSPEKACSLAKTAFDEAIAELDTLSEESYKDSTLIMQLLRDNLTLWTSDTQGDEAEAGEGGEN
UniProt Q99466: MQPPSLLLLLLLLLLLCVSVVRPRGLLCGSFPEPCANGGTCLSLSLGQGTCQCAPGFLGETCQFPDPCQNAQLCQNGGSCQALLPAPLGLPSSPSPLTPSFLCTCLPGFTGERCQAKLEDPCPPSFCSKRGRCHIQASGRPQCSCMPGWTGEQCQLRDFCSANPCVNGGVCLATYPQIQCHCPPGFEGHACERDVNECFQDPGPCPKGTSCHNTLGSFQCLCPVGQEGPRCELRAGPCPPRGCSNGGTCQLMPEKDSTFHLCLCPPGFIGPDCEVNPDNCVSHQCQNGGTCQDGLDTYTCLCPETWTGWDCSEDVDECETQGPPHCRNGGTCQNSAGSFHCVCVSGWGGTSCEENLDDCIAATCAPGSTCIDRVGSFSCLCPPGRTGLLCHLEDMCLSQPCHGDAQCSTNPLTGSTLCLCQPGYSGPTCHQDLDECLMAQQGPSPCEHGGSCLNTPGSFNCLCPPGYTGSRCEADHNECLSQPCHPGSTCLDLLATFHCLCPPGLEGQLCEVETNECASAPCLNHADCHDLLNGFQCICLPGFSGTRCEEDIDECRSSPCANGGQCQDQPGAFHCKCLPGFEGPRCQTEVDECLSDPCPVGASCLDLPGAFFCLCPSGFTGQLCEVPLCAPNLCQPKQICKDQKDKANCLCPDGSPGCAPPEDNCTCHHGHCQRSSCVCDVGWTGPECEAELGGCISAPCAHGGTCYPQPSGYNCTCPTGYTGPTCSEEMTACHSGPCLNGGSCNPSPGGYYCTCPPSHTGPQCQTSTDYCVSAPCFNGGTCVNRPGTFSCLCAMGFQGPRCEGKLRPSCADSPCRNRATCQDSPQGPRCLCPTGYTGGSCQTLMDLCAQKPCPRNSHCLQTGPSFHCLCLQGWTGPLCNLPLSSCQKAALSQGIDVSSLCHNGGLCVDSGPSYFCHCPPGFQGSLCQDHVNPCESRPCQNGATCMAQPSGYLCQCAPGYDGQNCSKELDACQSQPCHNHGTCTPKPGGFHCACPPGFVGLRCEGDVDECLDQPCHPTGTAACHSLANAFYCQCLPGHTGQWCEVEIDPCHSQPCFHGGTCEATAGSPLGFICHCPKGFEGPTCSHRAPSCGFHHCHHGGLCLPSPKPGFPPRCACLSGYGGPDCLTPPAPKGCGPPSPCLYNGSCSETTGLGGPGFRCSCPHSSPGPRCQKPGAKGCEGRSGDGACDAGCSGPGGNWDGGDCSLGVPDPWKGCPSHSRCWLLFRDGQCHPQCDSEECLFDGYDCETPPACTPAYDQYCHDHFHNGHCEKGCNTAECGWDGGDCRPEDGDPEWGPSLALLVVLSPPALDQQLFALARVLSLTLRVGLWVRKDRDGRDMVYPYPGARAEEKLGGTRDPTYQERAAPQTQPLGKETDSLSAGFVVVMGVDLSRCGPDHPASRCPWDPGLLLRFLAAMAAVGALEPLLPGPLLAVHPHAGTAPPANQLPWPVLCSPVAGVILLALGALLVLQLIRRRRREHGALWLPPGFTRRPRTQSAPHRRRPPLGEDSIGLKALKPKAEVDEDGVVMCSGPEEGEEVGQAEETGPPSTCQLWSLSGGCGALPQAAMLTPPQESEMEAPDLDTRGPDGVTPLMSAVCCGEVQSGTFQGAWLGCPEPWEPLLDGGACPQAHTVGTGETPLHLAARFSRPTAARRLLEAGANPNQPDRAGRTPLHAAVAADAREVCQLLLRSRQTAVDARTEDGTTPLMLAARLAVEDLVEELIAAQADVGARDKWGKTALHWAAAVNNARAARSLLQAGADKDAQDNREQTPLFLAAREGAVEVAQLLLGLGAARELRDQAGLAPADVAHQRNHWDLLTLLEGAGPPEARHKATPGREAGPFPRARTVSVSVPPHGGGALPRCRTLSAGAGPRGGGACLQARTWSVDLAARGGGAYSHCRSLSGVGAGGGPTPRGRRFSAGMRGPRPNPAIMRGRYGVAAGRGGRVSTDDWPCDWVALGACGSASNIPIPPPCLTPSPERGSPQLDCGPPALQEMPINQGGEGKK

These are yes or no findings as the source states them, for the method shown. In cells and extracts the contact can be indirect. Binding can be weak; no strength is given.

“HA-Notch4-ΔhN4 (from UniProt Q99466) (receptor)”: the binding result was “binds”.
